# Source: the supplement of paper PMC12819154, “High-throughput peptide-centric local stability assay extends protein–ligand identification to membrane proteins, tissues and bacteria” (Nature Structural & Molecular Biology, 2025)
# Sequences of proteins named here, by UniProt entry; tags and fusion partners are left off. A change or cut given only in a name is not applied to a line headed by its entry.
# UniProt Q8N5J2: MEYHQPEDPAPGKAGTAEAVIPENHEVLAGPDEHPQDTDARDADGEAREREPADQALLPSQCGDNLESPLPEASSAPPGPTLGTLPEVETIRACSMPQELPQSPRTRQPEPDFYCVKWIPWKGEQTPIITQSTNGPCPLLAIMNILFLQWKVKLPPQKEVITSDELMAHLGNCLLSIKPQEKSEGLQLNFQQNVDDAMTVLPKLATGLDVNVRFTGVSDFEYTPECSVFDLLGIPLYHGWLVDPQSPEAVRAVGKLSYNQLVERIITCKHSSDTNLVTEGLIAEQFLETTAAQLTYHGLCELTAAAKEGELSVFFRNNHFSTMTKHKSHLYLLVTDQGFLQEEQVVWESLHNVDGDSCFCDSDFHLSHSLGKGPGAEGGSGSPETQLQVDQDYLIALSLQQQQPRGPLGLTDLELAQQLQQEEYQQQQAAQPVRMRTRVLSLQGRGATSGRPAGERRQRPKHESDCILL
# UniProt Q8N7K0: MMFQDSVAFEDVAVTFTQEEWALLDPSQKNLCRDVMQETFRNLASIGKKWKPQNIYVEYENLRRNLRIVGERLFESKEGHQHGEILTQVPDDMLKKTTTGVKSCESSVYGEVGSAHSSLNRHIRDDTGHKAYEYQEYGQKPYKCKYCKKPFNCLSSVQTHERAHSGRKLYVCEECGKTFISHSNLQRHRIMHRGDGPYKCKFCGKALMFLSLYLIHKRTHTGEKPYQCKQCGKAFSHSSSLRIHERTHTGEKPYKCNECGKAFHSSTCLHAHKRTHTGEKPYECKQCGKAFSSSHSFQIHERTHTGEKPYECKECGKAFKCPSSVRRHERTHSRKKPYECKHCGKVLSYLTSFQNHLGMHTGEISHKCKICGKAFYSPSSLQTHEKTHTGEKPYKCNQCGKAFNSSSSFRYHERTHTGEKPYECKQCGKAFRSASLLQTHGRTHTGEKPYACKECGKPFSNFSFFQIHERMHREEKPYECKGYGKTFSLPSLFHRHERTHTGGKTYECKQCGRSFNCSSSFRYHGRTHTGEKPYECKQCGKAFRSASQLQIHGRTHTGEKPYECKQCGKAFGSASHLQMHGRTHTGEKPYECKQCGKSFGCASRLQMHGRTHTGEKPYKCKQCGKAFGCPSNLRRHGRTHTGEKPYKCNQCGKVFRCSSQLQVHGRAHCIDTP
# UniProt Q8TAT6: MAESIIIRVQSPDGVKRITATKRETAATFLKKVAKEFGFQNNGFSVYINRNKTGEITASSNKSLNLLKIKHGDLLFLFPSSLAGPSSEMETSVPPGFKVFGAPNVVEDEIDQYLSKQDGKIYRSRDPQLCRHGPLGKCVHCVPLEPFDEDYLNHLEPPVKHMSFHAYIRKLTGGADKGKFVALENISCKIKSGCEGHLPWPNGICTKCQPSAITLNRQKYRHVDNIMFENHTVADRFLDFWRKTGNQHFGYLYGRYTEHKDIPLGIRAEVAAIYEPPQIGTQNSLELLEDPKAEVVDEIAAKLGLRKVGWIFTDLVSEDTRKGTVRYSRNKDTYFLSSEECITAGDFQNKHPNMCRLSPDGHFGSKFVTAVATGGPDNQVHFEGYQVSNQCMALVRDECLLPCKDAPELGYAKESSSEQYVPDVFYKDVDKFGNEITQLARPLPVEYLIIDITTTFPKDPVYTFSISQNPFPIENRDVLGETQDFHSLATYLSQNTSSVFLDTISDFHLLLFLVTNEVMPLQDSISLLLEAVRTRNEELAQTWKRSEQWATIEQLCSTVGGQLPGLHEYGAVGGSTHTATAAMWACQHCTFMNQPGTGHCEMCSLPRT
# UniProt Q8NDA8: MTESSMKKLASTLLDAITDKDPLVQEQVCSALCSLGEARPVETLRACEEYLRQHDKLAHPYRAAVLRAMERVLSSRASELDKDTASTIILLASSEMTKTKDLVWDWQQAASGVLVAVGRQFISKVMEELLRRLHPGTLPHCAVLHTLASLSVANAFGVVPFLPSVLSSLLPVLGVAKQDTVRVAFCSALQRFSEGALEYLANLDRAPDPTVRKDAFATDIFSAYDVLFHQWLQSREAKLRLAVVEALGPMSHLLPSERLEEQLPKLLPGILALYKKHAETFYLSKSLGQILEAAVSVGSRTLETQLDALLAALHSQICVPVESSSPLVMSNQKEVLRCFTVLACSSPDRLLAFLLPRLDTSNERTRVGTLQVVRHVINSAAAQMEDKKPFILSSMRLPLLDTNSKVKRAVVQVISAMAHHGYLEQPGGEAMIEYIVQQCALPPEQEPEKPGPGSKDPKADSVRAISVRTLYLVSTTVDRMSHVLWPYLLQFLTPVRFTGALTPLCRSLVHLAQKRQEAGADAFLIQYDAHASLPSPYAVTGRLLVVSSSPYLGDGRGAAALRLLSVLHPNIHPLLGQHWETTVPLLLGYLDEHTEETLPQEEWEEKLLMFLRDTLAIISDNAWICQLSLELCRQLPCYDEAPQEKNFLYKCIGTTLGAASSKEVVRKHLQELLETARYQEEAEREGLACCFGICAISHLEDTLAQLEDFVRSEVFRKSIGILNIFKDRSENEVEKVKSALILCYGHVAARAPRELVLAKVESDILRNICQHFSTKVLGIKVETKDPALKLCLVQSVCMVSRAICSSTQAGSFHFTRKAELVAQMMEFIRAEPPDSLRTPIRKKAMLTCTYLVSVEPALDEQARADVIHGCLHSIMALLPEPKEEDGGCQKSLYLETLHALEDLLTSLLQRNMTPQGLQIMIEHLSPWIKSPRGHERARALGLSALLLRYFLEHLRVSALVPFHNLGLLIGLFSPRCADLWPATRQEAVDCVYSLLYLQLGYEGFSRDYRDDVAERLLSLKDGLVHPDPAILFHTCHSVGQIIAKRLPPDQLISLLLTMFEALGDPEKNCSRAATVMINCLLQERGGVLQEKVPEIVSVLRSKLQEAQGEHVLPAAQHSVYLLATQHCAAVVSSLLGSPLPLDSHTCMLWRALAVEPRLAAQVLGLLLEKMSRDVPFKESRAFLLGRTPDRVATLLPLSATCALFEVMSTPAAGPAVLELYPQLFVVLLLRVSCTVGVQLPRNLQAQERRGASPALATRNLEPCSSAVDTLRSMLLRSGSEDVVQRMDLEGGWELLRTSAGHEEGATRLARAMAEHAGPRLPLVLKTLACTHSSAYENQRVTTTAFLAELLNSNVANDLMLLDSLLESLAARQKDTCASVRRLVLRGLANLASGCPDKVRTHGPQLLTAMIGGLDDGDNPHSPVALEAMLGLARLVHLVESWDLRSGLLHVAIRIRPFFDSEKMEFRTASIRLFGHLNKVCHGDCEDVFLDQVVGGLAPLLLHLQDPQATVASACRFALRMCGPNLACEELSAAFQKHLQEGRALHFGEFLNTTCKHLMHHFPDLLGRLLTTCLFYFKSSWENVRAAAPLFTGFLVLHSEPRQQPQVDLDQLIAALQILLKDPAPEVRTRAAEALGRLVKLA
# UniProt Q8N9N8: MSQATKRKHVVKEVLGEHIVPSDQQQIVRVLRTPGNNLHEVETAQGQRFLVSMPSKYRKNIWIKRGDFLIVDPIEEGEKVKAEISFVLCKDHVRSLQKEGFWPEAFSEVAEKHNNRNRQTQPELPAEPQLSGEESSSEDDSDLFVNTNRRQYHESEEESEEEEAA
# UniProt Q8NI77: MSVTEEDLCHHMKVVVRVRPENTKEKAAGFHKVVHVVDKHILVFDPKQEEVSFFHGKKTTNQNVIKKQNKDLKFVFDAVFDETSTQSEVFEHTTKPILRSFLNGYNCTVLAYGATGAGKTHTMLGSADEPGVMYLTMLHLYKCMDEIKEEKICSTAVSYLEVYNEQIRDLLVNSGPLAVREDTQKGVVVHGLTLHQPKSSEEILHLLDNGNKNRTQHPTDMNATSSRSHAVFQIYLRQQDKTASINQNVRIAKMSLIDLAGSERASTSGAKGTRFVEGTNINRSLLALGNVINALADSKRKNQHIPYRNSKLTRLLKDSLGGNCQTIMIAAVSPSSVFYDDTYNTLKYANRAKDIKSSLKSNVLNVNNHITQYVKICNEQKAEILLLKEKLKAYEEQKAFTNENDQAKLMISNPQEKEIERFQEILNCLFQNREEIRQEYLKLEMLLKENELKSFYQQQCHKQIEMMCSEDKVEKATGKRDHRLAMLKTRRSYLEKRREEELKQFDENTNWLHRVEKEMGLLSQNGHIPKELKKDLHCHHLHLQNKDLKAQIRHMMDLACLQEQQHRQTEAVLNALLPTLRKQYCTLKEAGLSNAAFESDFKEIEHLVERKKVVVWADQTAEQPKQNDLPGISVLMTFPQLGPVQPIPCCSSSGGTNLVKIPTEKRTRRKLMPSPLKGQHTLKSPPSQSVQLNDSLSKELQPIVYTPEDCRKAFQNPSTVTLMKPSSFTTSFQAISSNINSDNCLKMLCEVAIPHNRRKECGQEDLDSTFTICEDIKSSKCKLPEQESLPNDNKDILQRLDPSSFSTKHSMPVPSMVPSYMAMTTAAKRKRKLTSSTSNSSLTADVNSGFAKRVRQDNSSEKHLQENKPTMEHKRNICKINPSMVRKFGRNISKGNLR
# UniProt Q8TAA3: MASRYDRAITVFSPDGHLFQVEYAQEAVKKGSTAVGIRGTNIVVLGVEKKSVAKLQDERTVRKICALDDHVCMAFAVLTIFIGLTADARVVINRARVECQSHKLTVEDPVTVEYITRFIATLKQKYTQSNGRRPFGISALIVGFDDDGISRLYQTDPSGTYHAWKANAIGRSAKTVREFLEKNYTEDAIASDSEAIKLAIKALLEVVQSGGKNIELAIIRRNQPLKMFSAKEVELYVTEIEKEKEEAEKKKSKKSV
# UniProt Q8NB42: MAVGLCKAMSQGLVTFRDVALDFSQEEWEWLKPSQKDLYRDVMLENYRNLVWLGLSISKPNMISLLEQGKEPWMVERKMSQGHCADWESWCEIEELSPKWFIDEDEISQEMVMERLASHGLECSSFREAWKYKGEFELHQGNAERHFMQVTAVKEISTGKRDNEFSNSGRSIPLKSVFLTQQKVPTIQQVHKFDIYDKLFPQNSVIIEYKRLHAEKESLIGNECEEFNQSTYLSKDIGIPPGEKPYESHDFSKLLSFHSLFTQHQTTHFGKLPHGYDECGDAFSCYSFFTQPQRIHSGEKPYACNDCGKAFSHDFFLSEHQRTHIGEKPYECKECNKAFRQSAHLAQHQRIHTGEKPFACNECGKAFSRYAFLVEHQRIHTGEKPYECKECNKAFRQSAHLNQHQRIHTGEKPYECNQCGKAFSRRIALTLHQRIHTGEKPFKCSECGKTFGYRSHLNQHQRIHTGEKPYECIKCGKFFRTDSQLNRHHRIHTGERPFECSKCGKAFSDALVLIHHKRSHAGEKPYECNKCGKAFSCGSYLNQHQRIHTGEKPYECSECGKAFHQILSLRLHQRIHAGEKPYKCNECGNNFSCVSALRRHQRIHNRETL
# UniProt Q8NBS9: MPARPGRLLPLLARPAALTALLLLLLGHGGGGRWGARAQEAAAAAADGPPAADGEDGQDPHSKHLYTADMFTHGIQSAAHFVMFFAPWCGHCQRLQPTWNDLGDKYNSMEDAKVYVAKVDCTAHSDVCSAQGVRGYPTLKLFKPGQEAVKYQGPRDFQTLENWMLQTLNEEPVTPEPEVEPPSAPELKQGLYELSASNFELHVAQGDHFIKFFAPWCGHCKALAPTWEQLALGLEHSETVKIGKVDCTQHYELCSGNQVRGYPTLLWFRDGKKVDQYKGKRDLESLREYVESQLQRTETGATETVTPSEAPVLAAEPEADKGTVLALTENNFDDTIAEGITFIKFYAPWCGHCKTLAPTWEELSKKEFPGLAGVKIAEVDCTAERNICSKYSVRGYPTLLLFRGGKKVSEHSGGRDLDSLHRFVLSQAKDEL
# This is one part of the list. Most values lie at the level of the controls, where differences are scatter.
# Compound: CN[C@@H]1C[C@H]2O[C@@](C)([C@@H]1OC)n1c3ccccc3c3c4c(c5c6ccccc6n2c5c31)C(=O)NC4 [staurosporine]
# Assay: log2 fold change of tryptic peptide abundance, ligand vs vehicle (limited proteolysis) (log2 ratio); higher = more trypsin-susceptible (destabilized)
# Conditions: ligand concentration: 20 uM; sample: K562 cleared lysate; digestion: 4 min, 22 C (HT-PELSA RT4min, Orbitrap Astral)
row,Target,log2 fold change
1,"MINDY1 (peptide sequence: EGELSVFFR, peptide start residue: 308) (UniProt Q8N5J2)",-0.202
2,"UniProt Q8N7K0 (peptide sequence: DVMQETFR, peptide start residue: 40)",-0.103
3,"NPLOC4 (peptide sequence: GKFVALENISCK, peptide start residue: 178) (UniProt Q8TAT6)",-0.505
4,"UniProt Q8NDA8 (peptide sequence: LAAQVLGLLLEK, peptide start residue: 1158)",-0.717
5,"EIF1AD (peptide sequence: EGFWPEAFSEVAEKHNNR, peptide start residue: 99) (UniProt Q8N9N8)",-0.227
6,"KIF18A (peptide sequence: TASINQNVR, peptide start residue: 242) (UniProt Q8NI77)",-0.528
7,"PSMA8 (peptide sequence: LTVEDPVTVEYITR, peptide start residue: 96) (UniProt Q8TAA3)",-0.153
8,"UniProt Q8NB42 (peptide sequence: THIGEKPYECK, peptide start residue: 181)",0.338
9,"TXNDC5 (peptide sequence: QGLYELSASNFELHVAQGDHFIK, peptide start residue: 189) (UniProt Q8NBS9)",0.61
